The source of these data is US20080200492A1, “METHODS FOR THE TREATMENT OF ALCOHOL ABUSE, ADDICTION AND DEPENDENCY” (priority 2006, published 2008).

The subject of data set [1] is alcohol preferring rats. Nature of the data set: Alcohol Preferring Rats, Study B: Post-Deprivation Effect. The data set is classed as in vivo, rat. As to conditions: 45 min before re-exposure to alcohol after 72 hours deprivation. The procedure: Adult male selectively-bred alcohol preferring rats were used in this study. The selectively bred alcohol preferring rats are widely used to study the suppressant effects of compounds on voluntary alcohol intake (Faren et al. 2000; Rezvani et al, 1990, 1991, 1992a, 1992b, 1999, 2000, 2002; 2003; Murphy et al, 1988; Overstreet et al., 1992, 1999; Li and McBride, 1995).
The rats were housed individually under a constant room temperature of 22±1° C. and 12:12 light-dark cycle (7:00-19:00, dark). Animals were fed Agway Prolab Rat/Mouse/Hamster 3000 formula and water ad libitum.
Alcohol intake was determined using a standard two-bottle choice method (Murphy et al. 1988; McBride et al. 1990; Rezvani et al. 1990, 1991, 1993, 1995, 1997, Rezvani et al., 2007a,b; Rezvani and Grady, 1994). Animals were first given free access to water in a graduated Richter tube for 1 day. Next, they were given access to only a solution of 10% (v/v) ethanol for 3 consecutive days. During this period the animals became accustomed to drinking from Richter tubes and to the taste and pharmacological effects of alcohol. Thereafter, the animals were given free access to both water and a solution of 10% alcohol for 4 consecutive weeks and throughout of the study. The animals continued to have free access to food. Water and alcohol intake were recorded at 6 and 24 hour.
Following Study A, the rats were maintained on alcohol for 15 days without drug. On day 16 post-gavage, rats were put on food and water only for 72 hours. On the next day, 45 min before re-exposure to alcohol, the rats were treated with vehicle (0.5% methylcellulose), naltrexone (at 20 mg/kg) or compound of formula (I-A) (at 30-mg/kg). Alcohol intake was then measured at 1, 3, 6 and 24 hr after exposure.
The results are presented as a means. Alcohol intake (g/kg) was calculated by multiplying the volume of alcohol consumed in ml by 10% and 0.7893 (ethanol density)/body weight in kg. Alcohol preference, expressed as percentage was calculated as (volume of alcohol consumed in ml/total fluid intake in ml)×100 (Rezvani and Grady, 1994; Rezvani et al., 2007a). Statistical differences between drug-treated and control groups was determined by using ANOVA and Tukey Student's t test for multiple comparison.
The results from Study B provide a measure of the effectiveness of the test compound to suppress post-deprivation-induced craving for alcohol.

Data set [2] has as its system alcohol preferring rats. Nature of the data set: Alcohol Preferring Rats In Vivo Model, acute oral dosing, two-bottle choice. Set-up: species or system rat. As to conditions: mean ± S.E.M., N = 14. The procedure:
Adult male selectively-bred alcohol preferring rats (N=14) were used. This particular strain of alcohol drinking rat has been characterized and have been widely used to study the effects of different compounds on voluntary alcohol intake (Farren et al., 2000; Rezvani et al, 1990, 1991, 1992a, 1992b, 1999, 2000, 2003; Murphy et al, 1988; Overstreet et al., 2003, 1999; Li and McBride, 1990). Rats were housed individually in approved cages under a constant room temperature of 22+1° C. and 12:12 light-dark cycle (8:00-20:00, dark). Animal were fed Agway Prolab Rat/Mouse/Hamster 3000 formula and water ad libitum.
Alcohol intake was determined using the standard two-bottle choice method utilized in our and other laboratories for many years (Murphy et al. 1988; Rezvani et al. 1990, 1991, 1993, 1995, 1997, Rezvani and Grady, 1994, Rezvani et al., 1993). Animals were first given free access to water in a graduated Richter tube for 2 days. Next, they were given access to only a solution of 10% (v/v) ethanol for 3 consecutive days. During this period animals became accustomed to drinking from Richter tubes and to the taste and pharmacological effects of alcohol. Thereafter, they were given free access to both water and a solution of 10% alcohol for at least 4 consecutive weeks and throughout of the period of study. Rats had free access to food. Water and alcohol intake were recorded at 6 and 24 hour after the treatment, whereas food intake was measured at 24 hour. Animals' body weights were measured the day of the treatment and the day after.
After establishment of stable baseline for alcohol, food, and water intake, rats were administered (gavage) at 9:30 a.m. either with the vehicle or the compound of formula (I) at one of four doses (1,3,10 and 30 mg/kg) using a cross-over design with random assignment. To be able to compare the efficacy of the compound of formula (I) on alcohol intake naltrexone was included as a positive control. The same rats were given an oral dose of 20 mg/kg naltrexone. All animals will receive all treatments in a random order. The interval between treatments was at least 1 week. Alcohol and water intake were recorded 6 and 24 h after the drug administration and food intake was recorded at 24 hr. The volume of the drug administration was 6 ml/kg.
The results at 6 and 24 hours post-dosing are presented in Tables 3 and 4 below, as means ±SEM. Alcohol intake (g/kg) was calculated by multiplying the volume of alcohol consumed in ml by 10% and 0.7893 (ethanol density)/body weight in kg. Alcohol preference, expressed as a percentage, was calculated as follows (volume of alcohol consumed in ml/total fluid intake in ml)×100 (Rezvani and Grady, 1994; Rezvani et al., 1997). Statistical differences between drug-treated and control groups were determined by using ANOVA with repeated measures. Each treatment was compared with the corresponding vehicle value.

Where [3] appears, read: 20 mg/kg p.o., 6 hrs post-dosing.
Setting [4] is: 20 mg/kg p.o., 24 hrs post-dosing.
The mark [5] stands for this setting: 1 mg/kg p.o., 6 hrs post-dosing.
Setting [6] is: 1 mg/kg p.o., 24 hrs post-dosing.
[7] abbreviates: 3 mg/kg p.o., 6 hrs post-dosing.
Setting [8] is: 3 mg/kg p.o., 24 hrs post-dosing.
Where [9] appears, read: 10 mg/kg p.o., 6 hrs post-dosing.
The mark [10] stands for this setting: 10 mg/kg p.o., 24 hrs post-dosing.
Where [11] appears, read: 30 mg/kg p.o, 6 hrs post-dosing.
Setting [12] is: 30 mg/kg p.o, 24 hrs post-dosing.

As for `O=C1CC[C@@]2(O)[C@H]3Cc4ccc(O)c5c4[C@@]2(CCN3CC2CC2)[C@H]1O5` [Naltrexone, naltrexone, reference compound], the Water was 0.26 g/kg with alcohol preferring rats [1] (20 mg/kg, 1 Hour Post Dosing); 0.88 g/kg in the data set on alcohol preferring rats [1] (20 mg/kg, 3 Hours Post Dosing); 4.12 g/kg with alcohol preferring rats [1] (20 mg/kg, 6 Hours Post Dosing); 12.26 g/kg in the data set with alcohol preferring rats [1] (20 mg/kg, 24 Hours Post Dosing). Besides, the “Total Fluid Intake” value with alcohol preferring rats [2] (setting [3]) was 39.7 ± 6.02 mL/kg; in the data set on alcohol preferring rats [2] (setting [4]), 118 ± 10.8 mL/kg. The “Water Intake” value in the data set on alcohol preferring rats [2] (setting [3]) was determined as 12.6 ± 2.48 mL/kg; with alcohol preferring rats [2] (setting [4]), 29.9 ± 5.21 mL/kg. For the same molecule, the “Food Intake” value in the data set with alcohol preferring rats [2] (setting [4]) is reported as 19.1 ± 1.34 g.

Take `Cc1cccc2cccc(CN3CCC4(CC3)C(=O)N(C[C@H](O)CN)CN4c3ccc(F)cc3)c12` [Cmpd (I-A), 3-(3-amino-2-(R)-hydroxy-propyl)-1-(4-fluoro-phenyl)-8-(8-methyl-naphthalen-1-ylmethyl)-1,3,8-triazaspiro[4.5]decan-4-one]: the Water in the data set on alcohol preferring rats [1] (30 mg/kg, 1 Hour Post Dosing) is listed as 0.85 g/kg; in the data set with alcohol preferring rats [1] (30 mg/kg, 3 Hours Post Dosing) it was 3.88 g/kg; in the data set on alcohol preferring rats [1] (30 mg/kg, 6 Hours Post Dosing), 5.78 g/kg; in the data set with alcohol preferring rats [1] (30 mg/kg, 24 Hours Post Dosing) it was 14.67 g/kg. The “Total Fluid Intake” value came to 44.7 ± 6.60 mL/kg in the data set with alcohol preferring rats [2] (setting [5]); 104 ± 11.1 mL/kg in the data set with alcohol preferring rats [2] (setting [6]); 51.0 ± 6.23 mL/kg in the data set on alcohol preferring rats [2] (setting [7]); 120 ± 9.23 mL/kg with alcohol preferring rats [2] (setting [8]); 46.7 ± 4.19 mL/kg in the data set with alcohol preferring rats [2] (setting [9]); 129 ± 9.98 mL/kg with alcohol preferring rats [2] (setting [10]). Moreover, the “Total Fluid Intake” value in the data set with alcohol preferring rats [2] (setting [11]) is 38.2 ± 6.93 mL/kg; with alcohol preferring rats [2] (setting [12]), 123 ± 10.3 mL/kg. The “Water Intake” value with alcohol preferring rats [2] (setting [5]) is given as 7.36 ± 1.67 mL/kg; with alcohol preferring rats [2] (setting [6]), 13.1 ± 2.26 mL/kg; in the data set with alcohol preferring rats [2] (setting [7]), 12.7 ± 2.67 mL/kg; in the data set on alcohol preferring rats [2] (setting [8]), 26.2 ± 4.56 mL/kg; in the data set on alcohol preferring rats [2] (setting [9]), 9.93 ± 2.13 mL/kg; in the data set with alcohol preferring rats [2] (setting [10]) it was 24.3 ± 3.76 mL/kg. For the same molecule, the “Water Intake” value in the data set with alcohol preferring rats [2] (setting [11]) is 11.4 ± 2.39 mL/kg; in the data set on alcohol preferring rats [2] (setting [12]), 34.0 ± 4.73 mL/kg. The “Food Intake” value with alcohol preferring rats [2] (setting [6]) is 16.3 ± 0.773 g; with alcohol preferring rats [2] (setting [8]), 22.4 ± 1.07 g; in the data set with alcohol preferring rats [2] (setting [10]), 22.2 ± 1.33 g; in the data set on alcohol preferring rats [2] (setting [12]), 21.5 ± 1.26 g.
